These results are taken from the supplement of paper PMC12819154, “High-throughput peptide-centric local stability assay extends protein–ligand identification to membrane proteins, tissues and bacteria” (Nature Structural & Molecular Biology, 2025).

Amino acid sequences for entries named in this document (tags omitted). A change or cut given only in a name is not applied to a line headed by its entry.
UniProt Q58WW2: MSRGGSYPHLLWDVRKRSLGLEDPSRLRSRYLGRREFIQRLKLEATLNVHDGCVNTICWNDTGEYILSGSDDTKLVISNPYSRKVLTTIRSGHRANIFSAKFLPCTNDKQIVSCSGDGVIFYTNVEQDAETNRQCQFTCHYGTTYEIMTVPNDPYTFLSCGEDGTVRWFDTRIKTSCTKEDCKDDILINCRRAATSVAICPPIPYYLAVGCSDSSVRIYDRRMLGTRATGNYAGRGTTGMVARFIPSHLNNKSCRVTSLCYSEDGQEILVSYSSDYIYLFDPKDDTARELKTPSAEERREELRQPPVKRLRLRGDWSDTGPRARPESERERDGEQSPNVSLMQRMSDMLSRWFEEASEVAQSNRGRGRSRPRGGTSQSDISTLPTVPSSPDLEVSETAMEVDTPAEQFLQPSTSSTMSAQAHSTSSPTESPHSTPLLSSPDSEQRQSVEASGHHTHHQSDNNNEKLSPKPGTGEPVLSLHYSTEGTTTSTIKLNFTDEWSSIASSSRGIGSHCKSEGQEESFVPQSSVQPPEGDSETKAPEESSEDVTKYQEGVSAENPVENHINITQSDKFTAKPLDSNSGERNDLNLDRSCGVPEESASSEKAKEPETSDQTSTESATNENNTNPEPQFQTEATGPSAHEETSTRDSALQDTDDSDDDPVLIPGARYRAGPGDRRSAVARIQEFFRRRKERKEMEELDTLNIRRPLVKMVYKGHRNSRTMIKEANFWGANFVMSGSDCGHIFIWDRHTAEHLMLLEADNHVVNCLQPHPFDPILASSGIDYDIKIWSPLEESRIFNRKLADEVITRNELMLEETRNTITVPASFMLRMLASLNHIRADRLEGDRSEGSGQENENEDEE
UniProt Q504T8: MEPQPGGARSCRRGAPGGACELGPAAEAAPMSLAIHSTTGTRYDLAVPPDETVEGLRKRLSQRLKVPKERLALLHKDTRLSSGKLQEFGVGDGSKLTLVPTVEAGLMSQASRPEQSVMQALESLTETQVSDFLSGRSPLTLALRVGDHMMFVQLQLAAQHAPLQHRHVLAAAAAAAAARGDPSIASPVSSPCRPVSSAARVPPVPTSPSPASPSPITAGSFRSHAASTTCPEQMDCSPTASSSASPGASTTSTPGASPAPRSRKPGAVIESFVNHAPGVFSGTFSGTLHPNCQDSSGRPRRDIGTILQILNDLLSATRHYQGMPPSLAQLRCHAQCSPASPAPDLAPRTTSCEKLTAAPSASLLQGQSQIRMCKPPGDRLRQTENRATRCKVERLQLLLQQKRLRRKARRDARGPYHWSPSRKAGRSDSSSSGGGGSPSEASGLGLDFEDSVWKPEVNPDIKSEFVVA
UniProt Q5VV42: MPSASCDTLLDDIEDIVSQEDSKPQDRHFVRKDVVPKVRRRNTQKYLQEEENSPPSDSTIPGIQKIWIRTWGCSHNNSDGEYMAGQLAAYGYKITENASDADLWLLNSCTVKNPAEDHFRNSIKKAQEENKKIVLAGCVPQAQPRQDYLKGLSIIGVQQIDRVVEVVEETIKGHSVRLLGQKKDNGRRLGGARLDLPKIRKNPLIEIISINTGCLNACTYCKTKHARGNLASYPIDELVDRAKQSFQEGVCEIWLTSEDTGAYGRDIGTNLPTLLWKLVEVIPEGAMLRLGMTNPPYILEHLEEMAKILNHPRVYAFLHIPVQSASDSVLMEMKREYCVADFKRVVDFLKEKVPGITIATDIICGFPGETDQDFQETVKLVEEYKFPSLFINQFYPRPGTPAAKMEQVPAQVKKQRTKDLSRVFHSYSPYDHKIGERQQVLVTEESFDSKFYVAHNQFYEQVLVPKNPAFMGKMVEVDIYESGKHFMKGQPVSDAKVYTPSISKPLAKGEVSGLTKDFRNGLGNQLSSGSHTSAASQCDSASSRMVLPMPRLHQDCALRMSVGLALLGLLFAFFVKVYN
UniProt Q5THK1: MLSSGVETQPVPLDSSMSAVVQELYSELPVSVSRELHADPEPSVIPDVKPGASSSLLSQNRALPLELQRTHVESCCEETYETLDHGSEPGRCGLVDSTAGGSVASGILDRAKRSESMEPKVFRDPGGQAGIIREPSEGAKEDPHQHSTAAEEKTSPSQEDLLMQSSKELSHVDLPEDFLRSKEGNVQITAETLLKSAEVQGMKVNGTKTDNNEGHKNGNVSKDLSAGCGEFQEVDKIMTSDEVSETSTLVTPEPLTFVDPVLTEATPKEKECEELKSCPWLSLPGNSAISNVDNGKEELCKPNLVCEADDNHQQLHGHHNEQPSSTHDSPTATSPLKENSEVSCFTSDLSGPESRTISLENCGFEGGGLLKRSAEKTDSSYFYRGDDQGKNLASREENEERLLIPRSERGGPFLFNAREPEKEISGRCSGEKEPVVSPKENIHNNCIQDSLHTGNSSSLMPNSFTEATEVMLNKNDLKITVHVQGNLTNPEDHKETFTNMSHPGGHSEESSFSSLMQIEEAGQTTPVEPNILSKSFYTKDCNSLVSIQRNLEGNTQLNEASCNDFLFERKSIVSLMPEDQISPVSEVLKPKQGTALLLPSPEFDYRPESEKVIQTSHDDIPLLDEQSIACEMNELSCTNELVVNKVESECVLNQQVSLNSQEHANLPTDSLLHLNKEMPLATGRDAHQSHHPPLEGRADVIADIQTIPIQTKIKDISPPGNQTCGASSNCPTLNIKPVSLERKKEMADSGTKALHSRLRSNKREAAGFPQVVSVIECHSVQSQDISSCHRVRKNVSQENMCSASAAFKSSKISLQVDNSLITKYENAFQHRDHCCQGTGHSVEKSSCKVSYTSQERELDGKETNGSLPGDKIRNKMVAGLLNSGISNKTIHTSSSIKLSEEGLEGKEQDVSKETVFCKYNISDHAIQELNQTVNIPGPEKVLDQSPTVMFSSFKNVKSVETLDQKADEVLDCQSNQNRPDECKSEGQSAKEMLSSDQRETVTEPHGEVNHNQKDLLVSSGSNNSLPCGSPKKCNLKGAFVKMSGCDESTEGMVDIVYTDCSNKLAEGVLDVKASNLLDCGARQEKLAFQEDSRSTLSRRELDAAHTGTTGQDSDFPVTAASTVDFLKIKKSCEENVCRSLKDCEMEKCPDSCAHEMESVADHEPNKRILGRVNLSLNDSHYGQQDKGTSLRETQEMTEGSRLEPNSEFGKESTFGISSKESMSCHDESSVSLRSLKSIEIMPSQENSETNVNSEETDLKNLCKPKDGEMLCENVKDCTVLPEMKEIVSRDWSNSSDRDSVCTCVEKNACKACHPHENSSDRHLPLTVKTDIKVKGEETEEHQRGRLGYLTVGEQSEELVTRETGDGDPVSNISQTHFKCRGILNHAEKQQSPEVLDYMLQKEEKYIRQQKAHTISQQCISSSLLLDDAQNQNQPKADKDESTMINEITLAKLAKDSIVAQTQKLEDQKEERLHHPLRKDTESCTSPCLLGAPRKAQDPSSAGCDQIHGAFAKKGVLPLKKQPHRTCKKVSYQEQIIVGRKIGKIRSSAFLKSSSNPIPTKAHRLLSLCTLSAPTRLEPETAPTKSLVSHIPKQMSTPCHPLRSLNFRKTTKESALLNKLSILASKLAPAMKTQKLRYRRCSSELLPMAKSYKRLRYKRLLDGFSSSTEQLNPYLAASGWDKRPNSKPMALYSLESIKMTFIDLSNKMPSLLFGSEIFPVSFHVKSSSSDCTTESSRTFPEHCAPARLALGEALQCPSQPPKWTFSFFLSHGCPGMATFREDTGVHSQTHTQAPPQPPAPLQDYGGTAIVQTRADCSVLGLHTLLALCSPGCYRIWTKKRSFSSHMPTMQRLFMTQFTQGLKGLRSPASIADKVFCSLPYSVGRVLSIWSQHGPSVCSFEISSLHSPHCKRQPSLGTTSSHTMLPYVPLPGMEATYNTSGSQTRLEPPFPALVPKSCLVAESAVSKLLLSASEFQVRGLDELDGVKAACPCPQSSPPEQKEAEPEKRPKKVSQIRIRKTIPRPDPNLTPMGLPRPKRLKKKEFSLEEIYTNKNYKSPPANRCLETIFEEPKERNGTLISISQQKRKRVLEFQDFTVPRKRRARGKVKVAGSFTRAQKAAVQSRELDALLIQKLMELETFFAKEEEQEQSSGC
UniProt Q4VC31: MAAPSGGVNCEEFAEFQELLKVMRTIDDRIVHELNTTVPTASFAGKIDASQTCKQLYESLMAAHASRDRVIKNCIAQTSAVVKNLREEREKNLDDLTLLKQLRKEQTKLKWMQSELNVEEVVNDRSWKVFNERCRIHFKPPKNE
UniProt Q53G59: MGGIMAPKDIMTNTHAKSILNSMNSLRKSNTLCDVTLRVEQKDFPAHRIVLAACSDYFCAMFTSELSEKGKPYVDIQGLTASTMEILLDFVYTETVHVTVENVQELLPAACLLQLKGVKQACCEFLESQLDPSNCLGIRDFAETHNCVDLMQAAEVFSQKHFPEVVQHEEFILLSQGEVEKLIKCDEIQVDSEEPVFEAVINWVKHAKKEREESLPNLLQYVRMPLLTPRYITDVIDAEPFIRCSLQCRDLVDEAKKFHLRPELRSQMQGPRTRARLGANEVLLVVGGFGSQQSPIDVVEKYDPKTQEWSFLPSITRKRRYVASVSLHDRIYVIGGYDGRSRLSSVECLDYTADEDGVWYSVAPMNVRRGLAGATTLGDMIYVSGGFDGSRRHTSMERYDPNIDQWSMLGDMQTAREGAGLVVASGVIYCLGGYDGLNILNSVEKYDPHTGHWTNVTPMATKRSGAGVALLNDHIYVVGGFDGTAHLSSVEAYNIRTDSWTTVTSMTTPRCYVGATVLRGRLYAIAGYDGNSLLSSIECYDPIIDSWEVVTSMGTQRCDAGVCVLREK
UniProt Q5JR12: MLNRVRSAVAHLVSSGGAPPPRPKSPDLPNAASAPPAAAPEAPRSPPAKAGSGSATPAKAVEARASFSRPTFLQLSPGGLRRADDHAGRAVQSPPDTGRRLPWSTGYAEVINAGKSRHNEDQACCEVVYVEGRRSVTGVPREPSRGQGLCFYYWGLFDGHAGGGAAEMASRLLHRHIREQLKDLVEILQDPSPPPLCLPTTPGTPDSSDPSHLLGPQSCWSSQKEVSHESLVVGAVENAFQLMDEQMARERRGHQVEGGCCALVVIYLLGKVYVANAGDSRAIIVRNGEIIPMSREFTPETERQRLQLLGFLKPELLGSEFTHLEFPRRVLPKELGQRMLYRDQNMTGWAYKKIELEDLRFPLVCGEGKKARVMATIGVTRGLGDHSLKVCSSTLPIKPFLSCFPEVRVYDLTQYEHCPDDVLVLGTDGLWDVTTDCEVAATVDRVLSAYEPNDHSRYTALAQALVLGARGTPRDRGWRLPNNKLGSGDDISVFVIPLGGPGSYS
UniProt Q5TKA1: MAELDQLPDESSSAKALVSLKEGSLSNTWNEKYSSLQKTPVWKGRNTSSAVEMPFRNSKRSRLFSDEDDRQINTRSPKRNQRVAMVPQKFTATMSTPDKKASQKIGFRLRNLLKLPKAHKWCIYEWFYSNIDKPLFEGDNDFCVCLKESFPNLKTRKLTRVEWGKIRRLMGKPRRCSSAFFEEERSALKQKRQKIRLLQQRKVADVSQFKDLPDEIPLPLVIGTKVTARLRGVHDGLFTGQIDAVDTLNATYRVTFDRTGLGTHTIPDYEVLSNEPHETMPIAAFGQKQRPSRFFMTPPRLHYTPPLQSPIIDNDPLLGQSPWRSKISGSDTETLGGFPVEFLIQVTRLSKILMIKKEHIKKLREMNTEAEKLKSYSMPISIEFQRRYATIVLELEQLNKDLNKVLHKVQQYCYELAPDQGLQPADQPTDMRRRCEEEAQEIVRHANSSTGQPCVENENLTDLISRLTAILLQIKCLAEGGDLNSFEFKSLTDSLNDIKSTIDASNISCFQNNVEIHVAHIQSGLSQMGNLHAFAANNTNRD
UniProt Q5HY98: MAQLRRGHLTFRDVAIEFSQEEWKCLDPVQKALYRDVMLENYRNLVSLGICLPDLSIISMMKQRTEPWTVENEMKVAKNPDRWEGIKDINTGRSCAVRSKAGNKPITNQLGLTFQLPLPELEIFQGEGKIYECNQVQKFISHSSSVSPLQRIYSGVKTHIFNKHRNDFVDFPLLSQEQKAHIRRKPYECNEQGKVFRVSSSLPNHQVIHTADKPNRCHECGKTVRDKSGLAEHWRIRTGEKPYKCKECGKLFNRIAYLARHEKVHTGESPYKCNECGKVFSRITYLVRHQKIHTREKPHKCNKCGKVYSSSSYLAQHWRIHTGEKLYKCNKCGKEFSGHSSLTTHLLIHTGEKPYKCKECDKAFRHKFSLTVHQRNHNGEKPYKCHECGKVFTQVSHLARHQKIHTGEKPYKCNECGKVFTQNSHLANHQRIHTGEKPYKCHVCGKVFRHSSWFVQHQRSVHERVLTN
UniProt Q53FT3: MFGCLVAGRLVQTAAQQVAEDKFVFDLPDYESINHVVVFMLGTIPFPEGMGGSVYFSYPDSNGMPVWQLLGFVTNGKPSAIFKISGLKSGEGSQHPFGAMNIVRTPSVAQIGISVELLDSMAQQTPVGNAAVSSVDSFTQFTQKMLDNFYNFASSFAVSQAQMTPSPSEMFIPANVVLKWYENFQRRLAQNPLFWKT

Compound in the test: CN[C@@H]1C[C@H]2O[C@@](C)([C@@H]1OC)n1c3ccccc3c3c4c(c5c6ccccc6n2c5c31)C(=O)NC4 [staurosporine]
Briefly: log2 fold change of tryptic peptide abundance, ligand vs vehicle (limited proteolysis) (log2 ratio); higher = more trypsin-susceptible (destabilized). As to conditions: ligand concentration: 20 uM; sample: K562 cleared lysate; digestion: 4 min, 22 C (HT-PELSA RT4min, Orbitrap Astral).

The other results are listed elsewhere or left out. Most entries show no effect beyond the scatter of the controls.

Take “UniProt Q58WW2 (peptide sequence: NTITVPASFMLR, peptide start residue: 818)”: the log2 fold change was found to be 0.912. Under “PREPL (peptide sequence: DLQPVKQENEKPLPENMDAFEK, peptide start residue: 74) (UniProt Q4J6C6)” stands 0.469; under “UniProt Q5JUX0 (peptide sequence: GTVLDQVPVNPSLYLIK, peptide start residue: 74)”, 0.346; under “UniProt Q5T011 (peptide sequence: DLMHVHSFSYDFHLR, peptide start residue: 3038)”, 1.23.

Consider “DDI2 (peptide sequence: SLASYGLKDGDVVILR, peptide start residue: 60) (UniProt Q5TDH0)”, for which the log2 fold change amounted to 0.334. Under “UniProt Q5T7B8 (peptide sequence: ASGPGEGLVR, peptide start residue: 687)” stands -0.2.

For the target “UniProt Q5JVG2 (peptide sequence: IHTGEKPYECSDCGK, peptide start residue: 243)”, the log2 fold change came to 0.0438. As for “UniProt Q504T8 (peptide sequence: LQLLLQQK, peptide start residue: 395)”, the log2 fold change is 0.336. On to “DDX59 (peptide sequence: QTQNDLVTGANLMDIIR, peptide start residue: 594) (UniProt Q5T1V6)”, for which the log2 fold change was -0.512.

In the case of “ACSF3 (peptide sequence: EGHSLSHR, peptide start residue: 524) (UniProt Q4G176)”, the log2 fold change is -0.211. Under “CDKAL1 (peptide sequence: VVEVVEETIK, peptide start residue: 163) (UniProt Q5VV42)” stands 0.249; under “UniProt Q5THK1 (peptide sequence: NGTLISISQQK, peptide start residue: 2073)”, 0.353; under “CCDC58 (peptide sequence: IDASQTCKQLYESLMAAHASR, peptide start residue: 47) (UniProt Q4VC31)”, 0.381.

Take “KLHL12 (peptide sequence: EREESLPNLLQYVR, peptide start residue: 210) (UniProt Q53G59)”: the log2 fold change was -0.0201. With “PPM1J (peptide sequence: VMATIGVTR, peptide start residue: 382) (UniProt Q5JR12)” the figure was -0.0488; with “LIN9 (peptide sequence: RRCEEEAQEIVR, peptide start residue: 433) (UniProt Q5TKA1)”, -1.5.

Regarding “CEP78 (peptide sequence: QESFEGFIAR, peptide start residue: 642) (UniProt Q5JTW2)”, the log2 fold change was -0.26. Turning to “UniProt Q5HY98 (peptide sequence: HRNDFVDFPLLSQEQK, peptide start residue: 164)”, the log2 fold change was -0.217. For the target “UniProt Q53FT3 (peptide sequence: LAQNPLFWK, peptide start residue: 188)”, the log2 fold change is -0.161.

As to “UniProt Q5JSZ5 (peptide sequence: EEGKDWAEAVGASR, peptide start residue: 430)”, the log2 fold change was -0.405. With “SFT2D3 (peptide sequence: AEEPGDRPAEEWLGR, peptide start residue: 32) (UniProt Q587I9)” the figure was 0.36. For “MEX3C (peptide sequence: TPVRGEEPIFVVTGR, peptide start residue: 268) (UniProt Q5U5Q3)”, the log2 fold change was -0.238. In the case of “UniProt Q4G148 (peptide sequence: SLLKPLELELQK, peptide start residue: 397)”, the log2 fold change turned out to be 0.29.

Turning to “ACBD5 (peptide sequence: STEEVKPIDENLGQTGK, peptide start residue: 262) (UniProt Q5T8D3)”, the log2 fold change was determined as 0.675. With “C3orf38 (peptide sequence: LKETPEPVTK, peptide start residue: 107) (UniProt Q5JPI3)” the figure was 0.262. Under “EAPP (peptide sequence: DQAWVDAQR, peptide start residue: 147) (UniProt Q56P03)” stands 0.145; under “SPECC1 (peptide sequence: ASESDAEIKDMK, peptide start residue: 651) (UniProt Q5M775)”, 0.392.
